Our source for the AC50 values is PubChem BioAssay AID493014 (National Center for Advancing Translational Sciences (NCATS), 2011).

For orientation: AC50 means the concentration giving half of the maximal activity seen.

This assay in a line: qHTS Assay to Find Inhibitors of Chronic Active B-Cell Receptor Signaling. The settings on record: ABC-DLBCL IkBa-CBG/CBR reporter, luminescence ratio (green luciferase fused to IkBa over red control in TMD8 lymphoma cells), 4 h. In a few lines:
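TMD8 ABC-DLBCL cells carrying doxycycline-inducible green luciferase fused to IkappaBalpha plus unfused red luciferase were exposed to compounds (up to 46 uM) for 4 hrs at 37C. Activity came from the overlap-corrected green/red luminescence ratio.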
A general note: Quantitative high-throughput screening tests each substance at several concentrations.

The mark [1] stands for this setting: measured here: CBR red luminescence, cell number.
[2] abbreviates: measured here: IkBa-CBG green luminescence.

This is one part of the list. These are further read-outs of the screen, such as a control signal, another cell line or another target. No call is given for them. The list favours compounds with an active or inconclusive main result. Potencies come from curve fits of mixed quality, noted in brackets.

On to `Cc1ccc(C(=O)Nc2ccc3c4c(cccc24)CC3)cc1[N+](=O)[O-]`, for which the AC50 under setting [1] is 2.59 µM [rising, full curve].

Turning to `COc1ccc(NC(=O)Nc2cnccn2)cc1`, under setting [1], the AC50 was 35.5 µM [rising, single point].

`COc1ccc(C(=O)Nc2cccc(OC)c2)cc1`: the AC50 under setting [1] is 11.2 µM [falling, partial curve].

In the case of `C[C@@]12C(=O)Nc3cc(Cl)ccc3C(=O)N1[C@H]1c3cc(Br)ccc3OC[C@@H]1[C@@H]2c1ccccc1`, under setting [1], the AC50 was 4.11 µM [falling, full curve].

`NC(=O)c1ccccc1NC(=O)c1ccccc1Cl`: the AC50 under setting [1] is 35.5 µM [rising, single point].

On to `O=[N+]([O-])c1ccc2c(c1)C(O)n1nc(-c3ccc(Cl)cc3Cl)nc1S2` (centres undefined), for which the half-maximal activity concentration (AC50) under setting [1] is 0.651 µM [rising, full curve].

With `O=C(/C=C/c1ccc(Cl)cc1)NCCc1ccccc1`, the AC50 under setting [1] is 4.61 µM [rising, partial curve].

For `O=S(=O)(NC1CCCCC1Oc1ccccc1)c1ccc(Cl)cc1` (centres undefined), the AC50 under setting [1] was 5.8 µM [rising, partial curve, poor fit].

On to `COc1ccc(C2CC(=O)Oc3cc(OC)c(OC)c(OC)c32)cc1` (centres undefined), for which the AC50 under setting [1] is 29.1 µM [rising, single point] and the AC50 under setting [2] is 16.4 µM [falling, partial curve].

With `O=C(Nc1ccc(Cl)cc1)[C@@H]1[C@@H]2C(=O)N(c3ccc(Cl)cc3)C(=O)[C@@H]2[C@H]2C=CC=NN21`, the half-maximal activity concentration (AC50) under setting [1] is 9.2 µM [falling, partial curve, poor fit].

Turning to `CC1=NN(c2ccccc2)C(=O)C1C(=O)c1cc([N+](=O)[O-])cc([N+](=O)[O-])c1` (centres undefined), under setting [2], the AC50 is 14.1 µM [rising, partial curve, poor fit].

Turning to `CCOC(=O)c1ccc(Nc2c(-c3ccc(OC)cc3)nc3nc[nH]n23)cc1`, under setting [1], the AC50 is 12.6 µM [falling, partial curve].

As for `C/C(=N\N=C1\NC(=O)CS1)c1cccs1`, the AC50 under setting [1] was 22.4 µM [rising, single point].

As for `COc1ccc(NC(=O)CCC(=O)NCCO)cc1`, the AC50 under setting [1] is 3.98 µM [rising, full curve, poor fit].

Take `COC(=O)c1ccccc1NC(=O)C1CC=CCC1C(=O)O` (centres undefined): under setting [1], the AC50 was 10.3 µM [falling, partial curve].

In the case of `C/C(=N\NC(=O)c1nn(C)c(C)c1Br)c1cccc(NC(=O)c2ccoc2C)c1`, under setting [1], the AC50 is 3.66 µM [falling, single point].

With `Cc1occc1C(=O)N/N=C/c1cccs1`, under setting [1], the half-maximal activity concentration (AC50) was 10 µM [falling, partial curve].

`O=C(O)CCC(=O)Nc1cccc2cccnc12`: under setting [1], the half-maximal activity concentration (AC50) is 15.8 µM [falling, single point].
